Counter-ions that a name gives are not always drawn. Like-named read-outs stand apart in the source and are kept apart here. Out of some 3,300 compounds screened, about 95 (3%) showed an effect of 50% or more. The list shows a part of the results.
Tested on: HCoV-229E
Design: species or system Huh-7; HTS, protection from HCoV-229E induced cell death, luminescent cell viability (CellCounting-Lite 2.0), inhibition rate
Conditions: 24 h post infection, 1 h compound pre-incubation, 10 µM, inhibitor

Row | SMILES | 229E Inhibition rate [%] | 229E Inhibition rate (229E Inhibition rate, 24 h) [%]
1 | CC(C)CCC[C@@H](C)[C@H]1CC[C@H]2C3=CC[C@H]4C[C@@H](O)CC[C@]4(C)[C@H]3CC[C@]12C [Lathosterol] | 5.7 | –
2 | C[C@H]1O[C@@H](O[C@H]2CC[C@@]3(C)[C@@H](CC[C@]4(C)[C@@H]3C=CC3=C5CC(C)(C)CC[C@]5(CO)[C@@H](O)C[C@]34C)[C@]2(C)CO)[C@H](O)[C@@H](O[C@@H]2O[C@H](CO)[C@@H](O)[C@H](O)[C@H]2O)[C@H]1O [Saikosaponin B1] | 23.1 | –
3 | CN1CC[C@]23c4ccccc4N[C@H]1[C@]21CCN(C)[C@H]3Nc2ccccc21 [Calycanthine] | 8.3 | –
4 | CNc1ccc2oc(C[C@H]3O[C@@]4(CC[C@H]3C)O[C@H]([C@H](C)C(=O)c3ccc[nH]3)[C@H](C)C[C@H]4C)nc2c1C(=O)O [Calcimycin] | 0 | –
5 | C=C(C)[C@@H]1CC=C(CO)CC1 [(S)-(−)-Perillyl alcohol] | 9.9 | –
6 | COc1cc(-c2coc3cc(O[C@@H]4O[C@H](CO)[C@@H](O)[C@H](O)[C@H]4O)c(OC)c(O)c3c2=O)cc(O)c1OC [Iridin] | 0 | –
7 | COc1cc2c(cc1O)CC[N+](C)(C)[C@@H]2Cc1ccc(O)cc1 [Lotusine (hydroxide)] | 0 | –
8 | COc1ccc2c(c[n+](C)c3c4cc5c(cc4ccc23)OCO5)c1OC [Chelerythrine (chloride)] | 3 | –
9 | COC(=O)C1=CO[C@@H](O[C@@H]2O[C@H](CO)[C@@H](O)[C@H](O)[C@H]2O)[C@H]2[C@@H]1[C@H](O)C[C@]2(C)O [Shanzhiside methyl ester] | 7 | –
10 | O[C@@H]1[C@@H](O)[C@@H]2OC[C@@H](O2)[C@H]1O [Levoglucosan] | 14.6 | –
11 | Oc1cnc2c(O)cccc2c1 [Jineol] | 16.6 | –
12 | CC(C)=CCC[C@H](C)[C@@H]1CC[C@]2(C)C3=C(CC[C@@]12C)[C@@]1(C)CC[C@H](O)C(C)(C)[C@@H]1CC3 [Tirucallol] | 0 | –
13 | COc1cc(C(C)=O)ccc1O[C@@H]1O[C@H](CO)[C@@H](O)[C@H](O)[C@H]1O [Androsin] | 11.3 | –
14 | C=C1C(=O)O[C@@H]2CC(C)=C([C@@H](C)CCCOC(C)=O)[C@@H](O)[C@H]12 [Inulicin] | 16.6 | –
15 | C=CCc1ccc(OC)c(OC)c1 [Methyl Eugenol] | 9.5 | –
16 | CC(C)=CCC[C@@H](C)CCO [(R)-Citronellol] | 19.3 | –
17 | CC(C)(O)[C@@H](O)COc1c2ccoc2cc2oc(=O)ccc12 [(-)-Oxypeucedanin hydrate] | 12.8 | –
18 | Oc1ccc2ccc3cccc4ccc1c2c34 [1-Hydroxypyrene] | 8.1 | –
19 | Cc1ccc(C(C)C)cc1O [Carvacrol] | 23.8 | –
20 | N[C@@H](CS(=O)(=O)O)C(=O)O [L-Cysteic acid (monohydrate)] | 10.5 | –
21 | COc1ccc(-c2oc3c(CC=C(C)C)c(O[C@@H]4O[C@H](CO)[C@@H](O)[C@H](O)[C@H]4O)cc(O)c3c(=O)c2O[C@@H]2O[C@@H](C)[C@H](O)[C@@H](O)[C@H]2O[C@@H]2OC[C@@H](O)[C@H](O)[C@H]2O)cc1 [Epimedin B] | 18.4 | –

Row | SMILES | 229E Inhibition rate [%] | 229E Inhibition rate (229E Inhibition rate, 24 h) [%]
22 | COc1c(O)c(C)cc2c1C(=O)c1c(O)cccc1C2=O [Obtusifolin] | 20.3 | –
23 | CCC(=O)c1c(O)cc(O)cc1O [Flopropione] | 21.5 | –
24 | COc1ccc(CC(=O)O)cc1OC [3,4-Dimethoxyphenylacetic acid] | 13.5 | –
25 | COc1cc(/C=C/C(=O)NCCc2ccc(O)cc2)ccc1O [N-trans-Feruloyltyramine] | 25.1 | –
26 | COc1cc(O)c2c(=O)cc(-c3ccc(O)c(O)c3)oc2c1 [Hydroxygenkwanin] | 49.2 | –
27 | O=c1cc(-c2ccc(O)cc2)oc2cccc(O)c12 [4',5-Dihydroxyflavone] | 24.7 | –
28 | CC(=O)N1C[C@H](O)C[C@H]1C(=O)O [Oxaceprol] | 6.7 | –
29 | COc1ccc2cc3[n+](cc2c1O)CCc1cc2c(cc1-3)OCO2 [Berberrubine (chloride)] | 17 | –
30 | CC[C@H](CC[C@@H](C)[C@H]1CC[C@H]2[C@@H]3CC=C4C[C@@H](O)CC[C@]4(C)[C@H]3CC[C@]12C)C(C)C [Beta-Sitosterol (purity>75%)] | – | 15
31 | O=C(O)C1=CCCNC1 [Guvacine hydrochloride] | 8.6 | –
32 | C=C(CC[C@@H](C(=O)O)[C@H]1[C@H](O)C[C@@]2(C)C3=CC[C@H]4C(C)(C)[C@@H](O)CC[C@]4(C)C3=CC[C@]12C)C(C)C [Dehydrotumulosic acid] | 8.5 | –
33 | COC(=O)CC[C@@H](C)[C@H]1CC[C@H]2[C@@H]3[C@H](O)C[C@@H]4C[C@H](O)CC[C@]4(C)[C@H]3C[C@H](O)[C@]12C [Methyl cholate] | 54.9 | –
34 | CC(C)=CCC/C(C)=C/CC/C(C)=C/Cc1c(O)c2ccccc2oc1=O [Ferulenol] | 4.4 | –
35 | COc1cc2cc(c1Cl)N(C)C(=O)C[C@H](OC(=O)[C@H](C)N(C)C(C)=O)[C@]1(C)O[C@H]1[C@H](C)[C@@H]1C[C@@](O)(NC(=O)O1)[C@H](OC)/C=C/C=C(\C)C2 [Maytansine] | 10.2 | –
36 | CC1=C(C=O)C(C)(C)C[C@H](O[C@@H]2O[C@H](CO)[C@@H](O)[C@H](O)[C@H]2O)C1 [Picrocrocin] | 12.4 | –
37 | CC1=C[C@]23C(=O)[C@@H](C=C(CO)[C@@H](O)[C@]2(O)[C@H]1O)[C@H]1[C@@H](C[C@H]3C)C1(C)C [Ingenol] | 15.6 | –
38 | O=C1c2ccccc2C(=O)c2c(O)ccc(O)c21 [Quinizarin] | 0 | –
39 | CC1(C)CC[C@]2(C(=O)O)CC[C@]3(C)C(=CC[C@@H]4[C@@]5(C)CC[C@H](O)[C@@](C)(CO)[C@@H]5CC[C@]43C)[C@@H]2C1 [Hederagenin] | 10.9 | –
40 | COC(=O)c1c(O)cc(O)cc1O [Methyl 2,4,6-trihydroxybenzoate] | 38.1 | –
41 | CC(C)=CCC/C(C)=C/CO [Geraniol] | 16.2 | –
42 | COC(=O)c1c[nH]c2ccccc12 [Methyl indole-3-carboxylate] | 12 | –

Another view of part of the listing above.
Row	SMILES	229E Inhibition rate [%]	229E Inhibition rate (229E Inhibition rate, 24 h) [%]
37	CC1=C[C@]23C(=O)[C@@H](C=C(CO)[C@@H](O)[C@]2(O)[C@H]1O)[C@H]1[C@@H](C[C@H]3C)C1(C)C [Ingenol]	15.6	–
38	O=C1c2ccccc2C(=O)c2c(O)ccc(O)c21 [Quinizarin]	0	–
39	CC1(C)CC[C@]2(C(=O)O)CC[C@]3(C)C(=CC[C@@H]4[C@@]5(C)CC[C@H](O)[C@@](C)(CO)[C@@H]5CC[C@]43C)[C@@H]2C1 [Hederagenin]	10.9	–
40	COC(=O)c1c(O)cc(O)cc1O [Methyl 2,4,6-trihydroxybenzoate]	38.1	–

Later entries

Row | SMILES | 229E Inhibition rate [%] | 229E Inhibition rate (229E Inhibition rate, 24 h) [%]
43 | CC(=O)c1c(O)cccc1O [2,6-Dihydroxyacetophenone] | 13.6 | –
44 | CCOC(=O)/C=C/c1ccccc1 [Ethyl cinnamate] | 4 | –
45 | COc1ccc(/C=C/C(=O)O)cc1 [(E)-3-(4-Methoxyphenyl)acrylic acid] | – | 21.1
46 | CC1=C(CO)C(=O)O[C@@H]([C@@H](C)[C@H]2CC[C@H]3[C@@H]4C[C@H]5O[C@]56[C@@H](O)C=CC(=O)[C@]6(C)[C@H]4CC[C@]23C)C1 [Withaferin A] | 1.5 | –
47 | CC12CC3OC4O[C@H](CO)[C@@H](O)[C@H](O)[C@H]4OC34CC1C4(COC(=O)c1ccccc1)C(=O)O2 (some centres unmarked) [Lactiflorin] | 8.4 | –
48 | COc1cc(CCC(=O)O)cc(OC)c1OC [3-(3,4,5-Trimethoxyphenyl)propanoic acid] | 55.1 | –
49 | COc1ccccc1/C=C/C=O [2-Methoxycinnamaldehyde] | 10.1 | –
50 | CCC(C(=O)O)c1ccccc1 (centres unmarked) [2-Phenylbutanoic acid] | 10.2 | –
51 | Cn1cnc(C[C@H](N)C(=O)O)c1 [1-Methyl-L-histidine] | 12.7 | –
52 | NC(=O)/C=C\C(=O)O [(Z)-4-Amino-4-oxobut-2-enoic acid] | 25.2 | –
53 | O=C[C@H](O)[C@@H](O)[C@H](O)CO (racemic) [DL-Xylose] | – | 18.5
54 | O=C(O)C/C=C(\CC(=O)O)C(=O)O [Triglochinic acid] | 21.8 | –
55 | OC[C@H]1O[C@@](CO)(OC[C@@]2(OC[C@@]3(OC[C@@]4(OC[C@@]5(OC[C@@]6(OC[C@@]7(OC[C@@]8(O[C@H]9O[C@H](CO)[C@@H](O)[C@H](O)[C@H]9O)O[C@H](CO)[C@@H](O)[C@@H]8O)O[C@H](CO)[C@@H](O)[C@@H]7O)O[C@H](CO)[C@@H](O)[C@@H]6O)O[C@H](CO)[C@@H](O)[C@@H]5O)O[C@H](CO)[C@@H](O)[C@@H]4O)O[C@H](CO)[C@@H](O)[C@@H]3O)O[C@H](CO)[C@@H](O)[C@@H]2O)[C@@H](O)[C@@H]1O [Fructo-oligosaccharide DP9/GF8] | 41 | –
56 | COc1cc2oc(-c3ccccc3)cc(=O)c2c(O)c1O [Negletein] | 43.2 | –
57 | COC(=O)c1ccc(O)cc1 [Methyl Paraben] | 8 | –
58 | COc1c(-c2ccc(O)c(O)c2)oc2cc(O)cc(O)c2c1=O [3-O-Methylquercetin] | 37.8 | –
59 | COC(=O)C1=CO[C@@H](O[C@@H]2O[C@H](CO)[C@@H](O)[C@H](O)[C@H]2O)[C@@H]2[C@@H](C)CC(=O)[C@]12O [Hastatoside] | 0 | –
60 | O=C(O)c1ccc(O)cc1O [2,4-Dihydroxybenzoic acid] | 7.4 | –
61 | COc1cc(CCO[C@@H]2O[C@H](CO[C@@H]3O[C@H](CO)[C@@H](O)[C@H](O)[C@H]3O)[C@@H](OC(=O)/C=C/c3ccc(O)c(O)c3)[C@H](O[C@@H]3O[C@@H](C)[C@H](O)[C@@H](O)[C@H]3O)[C@H]2O)ccc1O [Cistanoside A] | 10.3 | –
62 | COc1cc(O)c2c(=O)cc(-c3ccccc3)oc2c1 [Tectochrysin] | 15.9 | –

— PMC12431657, “Discovery and mechanistic insights of dibenzoylmethane as a broad spectrum inhibitor of coronavirus” (PLOS Pathogens, 2025)
